PubChem BioAssay AID1259327, Drosophila RNAi Screening Center | 2017

Assay: 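Data from controls in screens of zinc and manganese toxicity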
System: Drosophila S2R+ cells
Reagents: long dsRNA against Drosophila genes
Time to read-out: 5 days (water added on day 4, read one day later)
Conditions: water added as vehicle, no metal, one day before read-out
Measurement: 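Luciferase ATP signal per well, normalised to plate mean, duplicate average converted to z-score across plates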
Scale: ATP z-score: higher = more total ATP than typical wells; ATP luminescence: higher = more total ATP
Rule for the call: 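a hit is any knock-down whose absolute ATP z-score is greater than 1.5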
Meaning of the calls: active = hit: ATP up or down; inactive = no clear ATP change
The deposit covers about 3,100 reagents; this is a random part of them. Over the whole deposit, 378 (12%) got an active call. 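Hits include both directions; z-score sign shows ATP rise or fall; raw luminescence values are not plate-normalised.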 Entries without a mark were called inactive. Names joined by + are all predicted targets of the reagent. The record does not give: the amount of reagent.

AstA-R1 (Allatostatin A receptor 1) [DRSC17278] → ATP z-score, duplicate mean = 0.517; ATP luminescence, replicate 1 (RLU) = 6.12e5; ATP luminescence, replicate 2 (RLU) = 7.21e5
AstA-R1 (Allatostatin A receptor 1) [DRSC17727] → ATP z-score, duplicate mean = -0.952; ATP luminescence, replicate 1 (RLU) = 5.37e5; ATP luminescence, replicate 2 (RLU) = 7.45e5
CG13409 [DRSC14585] → ATP z-score, duplicate mean = -0.194; ATP luminescence, replicate 1 (RLU) = 2.99e5; ATP luminescence, replicate 2 (RLU) = 7.18e5
CG13409 [DRSC39736] → ATP z-score, duplicate mean = -0.829; ATP luminescence, replicate 1 (RLU) = 3.75e5; ATP luminescence, replicate 2 (RLU) = 4.44e5
Desat1 (Desaturase 1) [DRSC23578] → ATP z-score, duplicate mean = -3.23 (active); ATP luminescence, replicate 1 (RLU) = 4.58e5; ATP luminescence, replicate 2 (RLU) = 4.41e5
pll (pelle) [DRSC17026] → ATP z-score, duplicate mean = 0.0727; ATP luminescence, replicate 1 (RLU) = 7.07e5; ATP luminescence, replicate 2 (RLU) = 7.19e5
pll (pelle) [DRSC28551] → ATP z-score, duplicate mean = -0.165; ATP luminescence, replicate 1 (RLU) = 8.07e5; ATP luminescence, replicate 2 (RLU) = 7.98e5
Inx7 + cm [DRSC18753] → ATP z-score, duplicate mean = 0.292; ATP luminescence, replicate 1 (RLU) = 7.39e5; ATP luminescence, replicate 2 (RLU) = 7.33e5
CG7458 [DRSC11829] → ATP z-score, duplicate mean = 0.0109; ATP luminescence, replicate 1 (RLU) = 7.24e5; ATP luminescence, replicate 2 (RLU) = 7.65e5
CG7458 [DRSC21340] → ATP z-score, duplicate mean = -0.919; ATP luminescence, replicate 1 (RLU) = 5.56e5; ATP luminescence, replicate 2 (RLU) = 4.46e5
l(2)03659 (lethal (2) 03659) [DRSC07269] → ATP z-score, duplicate mean = 0.538; ATP luminescence, replicate 1 (RLU) = 6.03e5; ATP luminescence, replicate 2 (RLU) = 7.33e5
l(2)03659 (lethal (2) 03659) [DRSC07638] → ATP z-score, duplicate mean = 0.0904; ATP luminescence, replicate 1 (RLU) = 6.82e5; ATP luminescence, replicate 2 (RLU) = 8.27e5
Ir67b (Ionotropic receptor 67b) [DRSC09876] → ATP z-score, duplicate mean = 1.26; ATP luminescence, replicate 1 (RLU) = 9.33e5; ATP luminescence, replicate 2 (RLU) = 1.18e6
sns (sticks and stones) [DRSC07687] → ATP z-score, duplicate mean = -1.05; ATP luminescence, replicate 1 (RLU) = 5.72e5; ATP luminescence, replicate 2 (RLU) = 4.76e5
sns (sticks and stones) [DRSC07691] → ATP z-score, duplicate mean = 0.376; ATP luminescence, replicate 1 (RLU) = 6.77e5; ATP luminescence, replicate 2 (RLU) = 8.97e5
NaPi-T (Na[+]-dependent inorganic phosphate cotransporter) [DRSC07476] → ATP z-score, duplicate mean = -0.0884; ATP luminescence, replicate 1 (RLU) = 5.71e5; ATP luminescence, replicate 2 (RLU) = 6.52e5
NaPi-T (Na[+]-dependent inorganic phosphate cotransporter) [DRSC24468] → ATP z-score, duplicate mean = -0.636; ATP luminescence, replicate 1 (RLU) = 8.04e5; ATP luminescence, replicate 2 (RLU) = 7.39e5

Targets above whose target name starts with A or a:
AstA-R1 (Allatostatin A receptor 1) [DRSC17278] → ATP z-score, duplicate mean = 0.517; ATP luminescence, replicate 1 (RLU) = 6.12e5; ATP luminescence, replicate 2 (RLU) = 7.21e5
AstA-R1 (Allatostatin A receptor 1) [DRSC17727] → ATP z-score, duplicate mean = -0.952; ATP luminescence, replicate 1 (RLU) = 5.37e5; ATP luminescence, replicate 2 (RLU) = 7.45e5
